The target of assay [1] is endogenous LRP6 (co-IP of Figure 4A, third and fourth panels) (UniProt O75581). As to the kind of experiment: co-IP; reciprocal IP using recombinant human VSTM2A His-tag and endogenous LRP6; the precipitated partner and the cell line are not told; only the binder purified.
The target of assay [2] is HA-tagged LRP6, full length (human) (UniProt O75581). The assay can be described thus: co-IP; immunoprecipitation and immunoblot of full length LRP6 and VSTM2A C terminal deletion (Figure 4J). (In general: A western blot detects proteins with antibodies after separation by electrophoresis.)

The chains behind the UniProt entries cited, without tags or fusion partners. Residues count along the entry.
UniProt O75581, residues 20-1613: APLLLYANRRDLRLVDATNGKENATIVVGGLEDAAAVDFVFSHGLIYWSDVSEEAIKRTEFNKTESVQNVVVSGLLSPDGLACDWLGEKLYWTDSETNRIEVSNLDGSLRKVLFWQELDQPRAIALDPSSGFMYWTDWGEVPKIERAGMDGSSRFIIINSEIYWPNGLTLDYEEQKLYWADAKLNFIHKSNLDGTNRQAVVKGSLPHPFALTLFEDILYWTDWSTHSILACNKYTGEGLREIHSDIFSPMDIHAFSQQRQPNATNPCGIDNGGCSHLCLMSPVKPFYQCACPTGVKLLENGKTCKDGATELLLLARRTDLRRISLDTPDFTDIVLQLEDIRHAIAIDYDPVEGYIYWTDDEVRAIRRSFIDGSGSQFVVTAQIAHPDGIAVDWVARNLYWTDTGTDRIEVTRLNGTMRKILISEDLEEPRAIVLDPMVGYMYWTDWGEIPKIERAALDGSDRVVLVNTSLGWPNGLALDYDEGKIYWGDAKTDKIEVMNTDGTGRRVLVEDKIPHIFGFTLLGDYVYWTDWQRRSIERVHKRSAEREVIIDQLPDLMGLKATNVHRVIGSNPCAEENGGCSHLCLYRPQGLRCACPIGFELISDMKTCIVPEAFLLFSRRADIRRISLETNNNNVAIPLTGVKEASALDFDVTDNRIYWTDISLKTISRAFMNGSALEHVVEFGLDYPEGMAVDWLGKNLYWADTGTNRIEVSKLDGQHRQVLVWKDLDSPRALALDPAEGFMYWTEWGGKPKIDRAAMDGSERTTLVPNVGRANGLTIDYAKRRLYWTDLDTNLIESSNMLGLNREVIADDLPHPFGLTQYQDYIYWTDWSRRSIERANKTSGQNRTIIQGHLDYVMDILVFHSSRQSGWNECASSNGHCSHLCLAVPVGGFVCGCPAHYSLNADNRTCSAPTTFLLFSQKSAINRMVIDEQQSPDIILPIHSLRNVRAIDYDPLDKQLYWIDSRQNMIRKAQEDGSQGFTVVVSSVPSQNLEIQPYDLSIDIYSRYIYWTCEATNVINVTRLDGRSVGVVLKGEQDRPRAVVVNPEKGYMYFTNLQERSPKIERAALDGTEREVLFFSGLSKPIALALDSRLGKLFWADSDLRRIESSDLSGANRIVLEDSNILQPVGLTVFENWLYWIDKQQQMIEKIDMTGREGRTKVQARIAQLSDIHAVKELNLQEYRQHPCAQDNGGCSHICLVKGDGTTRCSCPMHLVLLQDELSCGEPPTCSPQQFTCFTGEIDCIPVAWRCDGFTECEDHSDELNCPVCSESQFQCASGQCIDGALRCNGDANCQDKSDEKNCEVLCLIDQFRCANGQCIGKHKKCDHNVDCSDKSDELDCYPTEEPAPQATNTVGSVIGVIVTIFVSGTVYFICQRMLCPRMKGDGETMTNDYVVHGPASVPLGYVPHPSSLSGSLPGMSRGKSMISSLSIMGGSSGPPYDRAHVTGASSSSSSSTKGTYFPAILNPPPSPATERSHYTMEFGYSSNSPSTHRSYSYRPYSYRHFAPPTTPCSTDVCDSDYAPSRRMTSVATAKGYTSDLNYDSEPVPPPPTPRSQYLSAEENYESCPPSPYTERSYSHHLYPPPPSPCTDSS

No constants are given. Whether binding was seen depends on the method and setting. In cells and extracts the contact can be indirect. Some results given as binding are weak or reduced against the parent protein; the word gives no strength. For some assays here: Tags and fused reporters may be left off the sequences shown.

B1: Recombinant Human VSTM2A His-tag Protein (R&D, 10037-VT) (ligand, UniProt Q8TAG5 25-236, looked up)
chain: SQAKFTEFPRNVTATEGQNVEMSCAFQSGSASVYLEIQWWFLRGPEDLDPGAEGAGAQVELLPDRDPDSDGTKISTVKVQGNDISHKLQISKVRKKDEGLYECRVTDANYGELQEHKAQAYLKVNANSHARRMQAFEASPMWLQDMKPRKNVSAAIPSSIHGSANQRTHSTSSPQVVAKIPKQSPQSGARIATSHGLSVLLLVCGFVKGALL
notes: human VSTM2A, commercial recombinant protein; also called recombinant VSTM2A; VSTM2A pure protein; source: bought: R&D
Turning to B1, the binding entry in assay [1] is on record as “binds”.

B2: VSTM2A Δ144-240 (VSTM2A IgV domain) (domain or fragment, UniProt Q8TAG5 25-143)
chain: SQAKFTEFPRNVTATEGQNVEMSCAFQSGSASVYLEIQWWFLRGPEDLDPGAEGAGAQVELLPDRDPDSDGTKISTVKVQGNDISHKLQISKVRKKDEGLYECRVTDANYGELQEHKAQ
B2: the binding result in assay [2] is “binds”.

Values taken from publication PMC6771244, “VSTM2A suppresses colorectal cancer and antagonizes Wnt signaling receptor LRP6” (Theranostics, 2019).
